Record: PubChem BioAssay AID1053208 (Peter MacCallum Cancer Centre, 2014)
The deposit covers about 17,000 reagents; below is a random part of them. Of all reagents, 788 (4.7%) are marked active. 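Calls rest on z-score classes alone; an extra cut-off of viability at most 70% of control was not applied to them.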 Not all columns of the deposit are shown.

Test: 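Genes whose silencing cuts survival of bone tumour cells only with doxorubicin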 (primary screen)
Cells: mouse osteosarcoma cells, early-passage culture from an engineered mouse model of fibroblastic bone tumour
Reagents: siRNA pool against mouse genes, 40 nM
Duration: about 120 h (48 h before drug, then 72 h with drug)
Treatment: doxorubicin 100 nM for 72 h, roughly 30-40% inhibitory dose
Measurement: 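Viability read as ATP luminescence after 72 h of 100 nM doxorubicin or none, duplicate wells averaged, scaled to non-targeting siRNA, then expressed as robust z-scores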
Direction: viability z-score with doxorubicin: higher = more viable cells under doxorubicin; viability z-score without drug: higher = more viable cells with knock-down alone
Call rule: 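Called active if knock-down leaves viability unchanged without drug (z within -2 to 2) but lowers it with doxorubicin (z at or under -2)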

Target gene	combined z-score class	viability z-score with doxorubicin	viability z-score without drug	call
Qser1	no change with or without drug	-1.12	0.34	inactive
Mon1a	low cell count with doxorubicin only	-3.15	-0.51	active
Phtf1	no change with or without drug	0	-0.17	inactive
Vmn1r174	no change with or without drug	-0.45	0.17	inactive
Vcl	no change with or without drug	0.9	1.52	inactive
Lgsn	no change with or without drug	-1.57	-0.67	inactive
Rybp	no change with or without drug	-0.9	0.51	inactive
Ebpl	no change with or without drug	-0.9	0.17	inactive
Nol4	low cell count without drug only	0	-2.19	inactive
Ttc36	no change with or without drug	0.79	1.01	inactive
Nr2e3	no change with or without drug	0.34	1.52	inactive
Mageb1	no change with or without drug	-0.45	-1.52	inactive
Bbs1	no change with or without drug	0.45	0.17	inactive
Sult5a1	no change with or without drug	-0.67	0.17	inactive
Npm2	no change with or without drug	1.8	-0.51	inactive
Nid1	no change with or without drug	0.9	0.17	inactive
Pnkd	no change with or without drug	-1.35	-0.84	inactive
Ptpra	no change with or without drug	0.45	0.17	inactive
Timm8a1	no change with or without drug	0.22	0.84	inactive
Myh7	no change with or without drug	-0.11	0.17	inactive
Thap4	high cell count without drug only	-0.45	2.02	inactive
Or5b12	no change with or without drug	-1.69	-0.51	inactive
Rab19	no change with or without drug	0.45	0.51	inactive
Mark4	no change with or without drug	-1.57	0.67	inactive
Fam133b	no change with or without drug	-1.57	-0.84	inactive
Bub1b	no change with or without drug	-1.12	0.17	inactive
Rexo4	no change with or without drug	0.22	-0.51	inactive
Or8k53	no change with or without drug	-0.45	-1.01	inactive
Cenpt	no change with or without drug	1.12	0.67	inactive
Adcy6	no change with or without drug	0.22	-0.17	inactive
Psmd4	no change with or without drug	0	-0.51	inactive
Cd40lg	no change with or without drug	0.45	1.18	inactive
Adam11	no change with or without drug	-0.56	1.85	inactive
Slc35e2	no change with or without drug	-0.22	-0.84	inactive
Mpc1	no change with or without drug	0.11	0.51	inactive
Msl3	no change with or without drug	-0.22	-0.51	inactive
Cyth4	no change with or without drug	0.79	0.84	inactive
Ncbp2	low cell count with and without drug	-4.95	-6.24	inactive
Shc3	no change with or without drug	-0.45	-0.51	inactive
Or51a42	no change with or without drug	0.45	0.17	inactive
Ftl2-ps	no change with or without drug	0.11	0.51	inactive
Or14j6	no change with or without drug	-1.35	-1.85	inactive
Mgat4a	no change with or without drug	-0.9	0.67	inactive
Zfp260	no change with or without drug	1.35	-0.17	inactive
Apol9b	no change with or without drug	-0.45	1.69	inactive
Klra22	no change with or without drug	0.56	1.01	inactive
Emilin2	no change with or without drug	0.34	1.18	inactive
Adk	no change with or without drug	-0.11	-0.51	inactive
Pcgf1	no change with or without drug	0.34	0.17	inactive
Nmur1	no change with or without drug	-0.45	-0.17	inactive

Entries above whose target name begins with V or v:
Target gene	combined z-score class	viability z-score with doxorubicin	viability z-score without drug	call
Vmn1r174	no change with or without drug	-0.45	0.17	inactive
Vcl	no change with or without drug	0.9	1.52	inactive
